Reference: PMC11497104
No constants are given. Whether binding was seen depends on the method and setting. Binding seen in cells or lysates may run through a third protein. Some results given as binding are weak or reduced against the parent protein; the word gives no strength. For some assays here: Where a sequence is shown, tags or fusion partners need not be part of it.

Protein sequences, listed by entry. Tags and fused reporters are not part of them. Lines headed by an entry give the natural chain unless they say otherwise; changes in a name come on top. Residues count along the entry.
UniProt Q00987: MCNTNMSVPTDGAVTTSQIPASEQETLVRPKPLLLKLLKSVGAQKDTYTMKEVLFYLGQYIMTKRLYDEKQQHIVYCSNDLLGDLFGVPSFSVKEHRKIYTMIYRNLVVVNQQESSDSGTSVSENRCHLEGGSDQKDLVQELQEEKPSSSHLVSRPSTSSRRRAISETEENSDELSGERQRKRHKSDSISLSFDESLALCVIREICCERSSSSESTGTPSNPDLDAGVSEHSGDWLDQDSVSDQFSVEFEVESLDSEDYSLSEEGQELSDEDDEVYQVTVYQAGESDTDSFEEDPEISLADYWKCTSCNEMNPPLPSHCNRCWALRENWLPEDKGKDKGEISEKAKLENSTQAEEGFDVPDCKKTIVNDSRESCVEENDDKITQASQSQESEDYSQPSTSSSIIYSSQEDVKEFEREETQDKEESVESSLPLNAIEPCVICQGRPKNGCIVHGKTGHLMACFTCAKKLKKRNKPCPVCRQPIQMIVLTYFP
His-MDM2-ΔN (1-108aa): residues 109-491 of Q00987

What was measured:
[1] = molecular target: His-tagged MDM2 (His-MDM2-WT) (UniProt Q00987); assay: co-IP; HEK293 cells co-transfected with Flag-Fgf12 and His-MDM2 (WT or deletion mutants), 48 h; lysates precipitated with anti-His or anti-Flag antibody, blotted for the other tag
His-MDM2-ΔN (1-108aa) = His-MDM2-ΔN (1-108aa) (UniProt Q00987); assay: as above
[2] = molecular target: MDM2 in HEK293 cells (Figure S10G) (UniProt Q00987); assay: co-IP; HEK293 cells overexpressing FGF12 (Figure S10G); details not shown
[3] = molecular target: MDM2 (endogenous, keratinocytes) (human (endogenous in HaCaT and NHEK)) (UniProt Q00987); assay: co-IP; HaCaT cells transfected with Flag-Fgf12 plasmid (0, 2, 4 µg), M5 for 12 h, MG132 10 µM for 6 h; precipitated with anti-MDM2, blotted with anti-β-Trcp, anti-MDM2, anti-Flag
[4] = molecular target: MDM2 (endogenous, keratinocytes) (human (endogenous in HaCaT and NHEK)) (UniProt Q00987); assay: co-IP; endogenous proteins, HaCaT lysates; precipitated with anti-MDM2 (IgG as control) or anti-FGF12; untreated, M5 for 0, 12, 24, 48 h, or si-Scr/si-Fgf12

B1: Flag-tagged FGF12 (fibroblast growth factor 12) (protein, UniProt P61328 1-243)
chain: MAAAIASSLIRQKRQARESNSDRVSASKRRSSPSKDGRSLCERHVLGVFSKVRFCSGRKRPVRRRPEPQLKGIVTRLFSQQGYFLQMHPDGTIDGTKDENSDYTLFNLIPVGLRVVAIQGVKASLYVAMNGEGYLYSSDVFTPECKFKESVFENYYVIYSSTLYRQQESGRAWFLGLNKEGQIMKGNRVKKTKPSSHFVPKPIEVCMYREPSLHEIGEKQGRSRKSSGTPTMNGGKVVNQDST
binding [1]: binds
binding (His-MDM2-ΔN (1-108aa)): binds
binding [2]: binds

B2: Flag-tagged FGF12 expressed in HaCaT cells (protein, UniProt P61328 1-243)
chain: MAAAIASSLIRQKRQARESNSDRVSASKRRSSPSKDGRSLCERHVLGVFSKVRFCSGRKRPVRRRPEPQLKGIVTRLFSQQGYFLQMHPDGTIDGTKDENSDYTLFNLIPVGLRVVAIQGVKASLYVAMNGEGYLYSSDVFTPECKFKESVFENYYVIYSSTLYRQQESGRAWFLGLNKEGQIMKGNRVKKTKPSSHFVPKPIEVCMYREPSLHEIGEKQGRSRKSSGTPTMNGGKVVNQDST
binding [3]: binds

B3: FGF12 (endogenous, keratinocytes) (protein, UniProt P61328 1-243)
chain: MAAAIASSLIRQKRQARESNSDRVSASKRRSSPSKDGRSLCERHVLGVFSKVRFCSGRKRPVRRRPEPQLKGIVTRLFSQQGYFLQMHPDGTIDGTKDENSDYTLFNLIPVGLRVVAIQGVKASLYVAMNGEGYLYSSDVFTPECKFKESVFENYYVIYSSTLYRQQESGRAWFLGLNKEGQIMKGNRVKKTKPSSHFVPKPIEVCMYREPSLHEIGEKQGRSRKSSGTPTMNGGKVVNQDST
binding [4]: binds
